{"source": "PubChem BioAssay AID504744 (Drosophila RNAi Screening Center, 2011)", "purpose": "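Find genes whose loss alters insulin-driven dAkt phosphorylation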 (primary screen)", "cell system": "Drosophila Kc167 cells", "knock-down reagent": "long dsRNA against Drosophila genes, 250 ng dsRNA per well of a 384-well plate", "timing": "3 days of knock-down, then overnight serum-free starvation before stimulation", "treatment": "bovine insulin at 387 nM for 10 minutes after 12 h without serum", "measurement": "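Per-well phospho-dAkt level from an in-cell fluorescent antibody stain, divided by a DNA-dye signal; log2 residuals turned into z-scores that take cell number into account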", "call rule": "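Under insulin, a gene counts as a hit if the average z-score of two replicates lies above 2.5 or below -2.5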", "note": "In all, the deposit lists about 23,000 reagents; shown is a random part of those that have a named target and a result. In the full data, 98 (0.43%) were called active. 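Only hit calls are given; the phospho-dAkt signals, z-scores and hit direction were not deposited.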"}
The first 7 entries, to show the layout:
{"predicted target": "alpha4GT2", "dsRNA": "DRSC15905", "Call": "inactive"}
{"predicted target": "CG9166", "dsRNA": "DRSC07842", "Call": "inactive"}
{"predicted target": "mRpS30", "dsRNA": "DRSC20107", "Call": "inactive"}
{"predicted target": "Phf5a", "dsRNA": "DRSC03261", "Call": "inactive"}
{"predicted target": "EMC3", "dsRNA": "DRSC02989", "Call": "inactive"}
{"predicted target": "Act42A", "dsRNA": "DRSC04835", "Call": "inactive"}
{"predicted target": "CG1812", "dsRNA": "DRSC20557", "Call": "inactive"}

The listing, from the first entry:
{"predicted target": "alpha4GT2", "dsRNA": "DRSC15905", "Call": "inactive"}
{"predicted target": "CG9166", "dsRNA": "DRSC07842", "Call": "inactive"}
{"predicted target": "mRpS30", "dsRNA": "DRSC20107", "Call": "inactive"}
{"predicted target": "Phf5a", "dsRNA": "DRSC03261", "Call": "inactive"}
{"predicted target": "EMC3", "dsRNA": "DRSC02989", "Call": "inactive"}
{"predicted target": "Act42A", "dsRNA": "DRSC04835", "Call": "inactive"}
{"predicted target": "CG1812", "dsRNA": "DRSC20557", "Call": "inactive"}
{"predicted target": "CG3760", "dsRNA": "DRSC04415", "Call": "inactive"}
{"predicted target": "DCTN5-p25", "dsRNA": "DRSC03525", "Call": "inactive"}
{"predicted target": "Kdm4B", "dsRNA": "DRSC06862", "Call": "inactive"}
{"predicted target": "shi", "dsRNA": "DRSC20373", "Call": "inactive"}
{"predicted target": "EDTP", "dsRNA": "DRSC07409", "Call": "inactive"}
{"predicted target": "Membrin", "dsRNA": "DRSC10448", "Call": "inactive"}
{"predicted target": "Cog8", "dsRNA": "DRSC02961", "Call": "inactive"}
{"predicted target": "CCT4", "dsRNA": "DRSC02865", "Call": "inactive"}
{"predicted target": "pnt", "dsRNA": "DRSC17028", "Call": "inactive"}
{"predicted target": "CG8642", "dsRNA": "DRSC07228", "Call": "inactive"}
{"predicted target": "Nup54", "dsRNA": "DRSC07282", "Call": "inactive"}
{"predicted target": "CG6927", "dsRNA": "DRSC18407", "Call": "inactive"}
{"predicted target": "CG32639", "dsRNA": "DRSC18972", "Call": "inactive"}
{"predicted target": "CG15260", "dsRNA": "DRSC01977", "Call": "inactive"}
{"predicted target": "CG5050", "dsRNA": "DRSC02807", "Call": "inactive"}
{"predicted target": "Blos1", "dsRNA": "DRSC05970", "Call": "inactive"}
{"predicted target": "eIF2D", "dsRNA": "DRSC13916", "Call": "inactive"}
{"predicted target": "DIP-iota", "dsRNA": "DRSC02140", "Call": "inactive"}
{"predicted target": "CG14143", "dsRNA": "DRSC10146", "Call": "inactive"}
{"predicted target": "CG13654", "dsRNA": "DRSC14654", "Call": "inactive"}
{"predicted target": "CG13545", "dsRNA": "DRSC04187", "Call": "inactive"}
{"predicted target": "CG17597", "dsRNA": "DRSC02630", "Call": "inactive"}
{"predicted target": "CG12784", "dsRNA": "DRSC14539", "Call": "inactive"}
{"predicted target": "CG31875", "dsRNA": "DRSC21975", "Call": "inactive"}
{"predicted target": "CG13130 (retired record)", "dsRNA": "DRSC02226", "Call": "inactive"}
{"predicted target": "CG7173", "dsRNA": "DRSC11812", "Call": "inactive"}
{"predicted target": "Mcm10", "dsRNA": "DRSC03162", "Call": "inactive"}
{"predicted target": "CG43901", "dsRNA": "DRSC19397", "Call": "inactive"}
{"predicted target": "CG43901", "dsRNA": "DRSC19652", "Call": "inactive"}
{"predicted target": "Sec61alpha", "dsRNA": "DRSC03256", "Call": "inactive"}
{"predicted target": "Pex5", "dsRNA": "DRSC18552", "Call": "inactive"}
{"predicted target": "Cpr66Cb", "dsRNA": "DRSC10769", "Call": "inactive"}
{"predicted target": "NAAT1", "dsRNA": "DRSC18300", "Call": "inactive"}
{"predicted target": "Cyp4e1", "dsRNA": "DRSC07370", "Call": "inactive"}
{"predicted target": "CG5913", "dsRNA": "DRSC15916", "Call": "inactive"}
{"predicted target": "CG2493", "dsRNA": "DRSC02707", "Call": "inactive"}
{"predicted target": "RpL13A", "dsRNA": "DRSC12265", "Call": "inactive"}
{"predicted target": "MESK2", "dsRNA": "DRSC04258", "Call": "inactive"}
{"predicted target": "Atpalpha", "dsRNA": "DRSC14119", "Call": "inactive"}
{"predicted target": "CG13676", "dsRNA": "DRSC10035", "Call": "inactive"}
{"predicted target": "p120ctn", "dsRNA": "DRSC07753", "Call": "inactive"}
{"predicted target": "Cyt-c-d", "dsRNA": "DRSC03309", "Call": "inactive"}
{"predicted target": "Cyp6a13", "dsRNA": "DRSC07375", "Call": "inactive"}
{"predicted target": "CG17207", "dsRNA": "DRSC15198", "Call": "inactive"}
{"predicted target": "CG12182", "dsRNA": "DRSC08142", "Call": "inactive"}
{"predicted target": "CG9733", "dsRNA": "DRSC16549", "Call": "inactive"}
{"predicted target": "CG10562", "dsRNA": "DRSC14257", "Call": "inactive"}
{"predicted target": "CG13049", "dsRNA": "DRSC09930", "Call": "inactive"}
{"predicted target": "Ir67a", "dsRNA": "DRSC09897", "Call": "inactive"}
{"predicted target": "amx", "dsRNA": "DRSC18736", "Call": "inactive"}
{"predicted target": "CG14926", "dsRNA": "DRSC02409", "Call": "inactive"}
{"predicted target": "pncr004:X (retired record)", "dsRNA": "DRSC19295", "Call": "inactive"}
{"predicted target": "RSG7", "dsRNA": "DRSC20274", "Call": "inactive"}
{"predicted target": "RSG7", "dsRNA": "DRSC22852", "Call": "inactive"}
{"predicted target": "CG10345", "dsRNA": "DRSC14138", "Call": "inactive"}
{"predicted target": "CG5265", "dsRNA": "DRSC15756", "Call": "inactive"}
{"predicted target": "CG33017", "dsRNA": "DRSC06573", "Call": "inactive"}
{"predicted target": "CG33017", "dsRNA": "DRSC06574", "Call": "inactive"}
{"predicted target": "YME1L", "dsRNA": "DRSC04378", "Call": "inactive"}
{"predicted target": "drongo", "dsRNA": "DRSC00814", "Call": "inactive"}
{"predicted target": "Boh2", "dsRNA": "DRSC02777", "Call": "inactive"}
{"predicted target": "GLS", "dsRNA": "DRSC07261", "Call": "inactive"}
{"predicted target": "CG31862", "dsRNA": "DRSC01245", "Call": "inactive"}
{"predicted target": "MTPAP", "dsRNA": "DRSC18585", "Call": "inactive"}
{"predicted target": "l(2)k09848", "dsRNA": "DRSC04894", "Call": "inactive"}
{"predicted target": "CG1545", "dsRNA": "DRSC21532", "Call": "inactive"}
